Data: PMC7768195
Substitutions are numbered along the chain they refer to. These are yes or no findings as the source states them, for the method shown. Binding seen in cells or lysates may run through a third protein. Some binding calls cover weakened binding; strength is not graded here. Blank lines part the entries; values can stand above or below the molecule they belong to.

The chains behind the UniProt entries cited, without tags or fusion partners.
UniProt Q61188: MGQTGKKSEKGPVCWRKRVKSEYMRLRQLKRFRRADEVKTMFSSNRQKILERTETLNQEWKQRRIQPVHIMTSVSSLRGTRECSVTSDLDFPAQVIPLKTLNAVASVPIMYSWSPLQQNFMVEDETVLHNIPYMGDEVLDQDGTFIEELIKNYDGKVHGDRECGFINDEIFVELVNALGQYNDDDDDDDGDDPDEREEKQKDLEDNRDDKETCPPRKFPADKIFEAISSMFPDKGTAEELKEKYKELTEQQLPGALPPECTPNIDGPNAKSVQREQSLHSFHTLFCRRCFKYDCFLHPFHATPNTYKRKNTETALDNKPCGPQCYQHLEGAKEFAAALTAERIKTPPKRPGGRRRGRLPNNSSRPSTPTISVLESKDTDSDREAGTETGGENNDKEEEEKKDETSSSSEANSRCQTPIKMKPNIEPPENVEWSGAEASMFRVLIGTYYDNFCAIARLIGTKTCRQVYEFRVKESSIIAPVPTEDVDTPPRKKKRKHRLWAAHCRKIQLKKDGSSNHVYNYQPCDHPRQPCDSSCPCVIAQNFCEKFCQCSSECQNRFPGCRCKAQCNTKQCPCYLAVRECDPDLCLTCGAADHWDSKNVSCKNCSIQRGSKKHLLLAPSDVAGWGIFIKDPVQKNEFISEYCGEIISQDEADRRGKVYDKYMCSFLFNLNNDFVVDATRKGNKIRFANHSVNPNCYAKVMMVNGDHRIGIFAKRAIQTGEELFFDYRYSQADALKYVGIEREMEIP
UniProt Q9CQJ4: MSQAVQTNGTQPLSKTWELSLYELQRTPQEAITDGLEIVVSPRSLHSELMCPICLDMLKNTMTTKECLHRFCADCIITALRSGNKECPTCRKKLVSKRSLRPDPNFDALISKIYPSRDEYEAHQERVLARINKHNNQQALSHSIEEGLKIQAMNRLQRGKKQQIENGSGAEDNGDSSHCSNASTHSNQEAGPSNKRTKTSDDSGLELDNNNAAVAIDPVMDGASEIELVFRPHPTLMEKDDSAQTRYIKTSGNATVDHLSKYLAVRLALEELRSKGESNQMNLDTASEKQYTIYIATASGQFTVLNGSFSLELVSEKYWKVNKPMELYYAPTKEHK
UniProt Q99496: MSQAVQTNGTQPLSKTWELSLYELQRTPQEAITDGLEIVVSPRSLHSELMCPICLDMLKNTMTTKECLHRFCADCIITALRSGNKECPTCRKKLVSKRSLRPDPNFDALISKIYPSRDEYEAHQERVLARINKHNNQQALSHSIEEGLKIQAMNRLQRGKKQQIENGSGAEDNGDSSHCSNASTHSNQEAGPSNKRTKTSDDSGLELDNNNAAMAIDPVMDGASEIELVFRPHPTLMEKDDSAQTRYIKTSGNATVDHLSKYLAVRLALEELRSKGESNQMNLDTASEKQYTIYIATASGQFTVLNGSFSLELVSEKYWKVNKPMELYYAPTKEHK
UniProt Q921E6: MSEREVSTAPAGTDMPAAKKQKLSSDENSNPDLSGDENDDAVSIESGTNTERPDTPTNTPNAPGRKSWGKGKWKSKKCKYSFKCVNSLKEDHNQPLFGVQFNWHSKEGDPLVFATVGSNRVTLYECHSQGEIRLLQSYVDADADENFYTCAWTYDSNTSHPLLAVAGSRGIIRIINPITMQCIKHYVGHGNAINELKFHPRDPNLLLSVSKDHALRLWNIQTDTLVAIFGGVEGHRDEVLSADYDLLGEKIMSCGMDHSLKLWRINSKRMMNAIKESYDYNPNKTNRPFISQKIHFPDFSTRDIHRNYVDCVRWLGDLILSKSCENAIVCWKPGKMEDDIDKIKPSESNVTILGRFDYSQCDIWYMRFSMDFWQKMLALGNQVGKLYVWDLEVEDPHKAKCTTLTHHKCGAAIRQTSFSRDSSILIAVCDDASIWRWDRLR

How the values were obtained:
[1] = target: EZH2 (C3H10T1/2 cells) (mouse (endogenous in C3H10T1/2)) (UniProt Q61188); experiment: proximity ligation; Duolink II Fluorescence PLA kit on control or SS18-SSX1-V5-expressing C3H10T1/2 cells, fixed in 4% paraformaldehyde, permeabilised with 0.3% triton; foci counted in five fields
[2] = target: RING1B (C3H10T1/2 cells) (mouse (endogenous in C3H10T1/2)) (UniProt Q9CQJ4); experiment: as above
[3] = target: RING1B (HSSYII cells) (human (endogenous in HSSYII)) (UniProt Q99496); experiment: proximity ligation; Duolink II Fluorescence PLA kit on HSSYII cells (endogenous HA-tagged SS18-SSX1), fixed in 4% paraformaldehyde, permeabilised with 0.3% triton; with or without CRISPR-mediated USP7 removal

binding [1]: binds
Molecule: EED (C3H10T1/2 cells) (from UniProt Q921E6 1-441)

binding [2]: binds
B1: RYBP (C3H10T1/2 cells) (protein, UniProt Q8CCI5 1-228)
chain: MTMGDKKSPTRPKRQAKPAADEGFWDCSVCTFRNSAEAFKCSICDVRKGTSTRKPRINSQLVAQQVAQQYATPPPPKKEKKEKVEKPDKEKPEKDKDISPSVTKKNTNKKTKPKSDILKDPPSEANSIQSANATTKTSETNHTSRPRLKNVDRSTAQQLAVTVGNVTVIITDFKEKTRSSSTSSSTVTSSAGSEQQNQSSSGSESTDKGSSRSSTPKGDMSAVNDESF

binding [3]: binds
B2: RYBP (HSSYII cells) (protein, UniProt Q8N488 1-228)
chain: B1 chain with P87Q, D97E
